Assay results published in publication PMC11665855.
No constants are given. Whether binding was seen depends on the method and setting. In cells and extracts the contact can be indirect. Some binding calls cover weakened binding; strength is not graded here.

Amino acid sequences for entries named in this document (tags omitted).
UniProt Q61038: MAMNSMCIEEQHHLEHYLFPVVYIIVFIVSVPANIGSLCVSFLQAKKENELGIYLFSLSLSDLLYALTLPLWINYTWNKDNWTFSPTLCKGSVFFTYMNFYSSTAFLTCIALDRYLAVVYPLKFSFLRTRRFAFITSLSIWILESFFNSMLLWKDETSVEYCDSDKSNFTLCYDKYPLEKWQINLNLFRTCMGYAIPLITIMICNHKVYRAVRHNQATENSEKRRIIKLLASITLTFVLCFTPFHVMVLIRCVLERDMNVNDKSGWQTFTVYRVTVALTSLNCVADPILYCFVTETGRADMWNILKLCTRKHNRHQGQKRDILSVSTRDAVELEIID
UniProt P49407: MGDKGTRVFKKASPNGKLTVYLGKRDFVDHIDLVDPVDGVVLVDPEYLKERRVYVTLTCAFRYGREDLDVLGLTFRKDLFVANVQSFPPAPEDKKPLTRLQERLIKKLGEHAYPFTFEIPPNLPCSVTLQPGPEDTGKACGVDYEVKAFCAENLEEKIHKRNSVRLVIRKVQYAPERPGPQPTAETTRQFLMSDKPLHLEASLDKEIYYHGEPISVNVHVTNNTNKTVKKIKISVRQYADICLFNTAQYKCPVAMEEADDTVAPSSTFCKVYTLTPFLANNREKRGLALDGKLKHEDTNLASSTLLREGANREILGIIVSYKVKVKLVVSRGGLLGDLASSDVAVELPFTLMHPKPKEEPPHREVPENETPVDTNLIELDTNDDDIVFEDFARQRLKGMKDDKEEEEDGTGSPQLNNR
UniProt P32121: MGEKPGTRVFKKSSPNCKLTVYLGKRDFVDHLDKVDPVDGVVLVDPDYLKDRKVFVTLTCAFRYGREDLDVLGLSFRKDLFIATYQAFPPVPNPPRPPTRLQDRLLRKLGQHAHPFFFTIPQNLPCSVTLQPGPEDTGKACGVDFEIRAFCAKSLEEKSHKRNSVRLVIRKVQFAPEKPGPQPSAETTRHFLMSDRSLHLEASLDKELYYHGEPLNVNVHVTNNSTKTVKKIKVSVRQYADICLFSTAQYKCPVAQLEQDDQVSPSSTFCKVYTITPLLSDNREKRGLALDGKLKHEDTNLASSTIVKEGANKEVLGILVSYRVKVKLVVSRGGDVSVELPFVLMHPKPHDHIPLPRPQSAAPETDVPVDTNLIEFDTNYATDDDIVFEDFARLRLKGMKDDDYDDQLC

Experiments:
[1] = biological target: mGPR65-RLuc8 (mouse GPR65 tagged with luciferase) (mouse) (UniProt Q61038); assay: FRET or BRET; BRET between mGPR65-RLuc8 and YFP tagged β-arrestin in transiently transfected Flp-In-CHO cells; psychosine treatment
[2] = biological target: mGPR65-RLuc8 (mouse GPR65 tagged with luciferase) (mouse) (UniProt Q61038); assay: FRET or BRET; BRET between mGPR65-RLuc8 and YFP tagged β-arrestin in transiently transfected Flp-In-CHO cells; 15 min of exposure to protons or BTB

binding [2] | Substance | binding [1]
binds | β-arrestin 1-YFP (from UniProt P49407 1-418) | no binding (condition: with psychosine as the agonist)
binds | β-arrestin 2 (YFP tagged) (from UniProt P32121 1-409) | no binding (condition: with psychosine as the agonist)
